Experimental data as given in PMC10367555.
These are yes or no findings as the source states them, for the method shown. Binding seen in cells or lysates may run through a third protein. Some binding calls cover weakened binding; strength is not graded here. For some assays here: Tags and fused reporters may be left off the sequences shown.

By UniProt entry, the sequences of proteins in these tests, tags left out. Residues count along the entry.
UniProt P34741, residues 19-201: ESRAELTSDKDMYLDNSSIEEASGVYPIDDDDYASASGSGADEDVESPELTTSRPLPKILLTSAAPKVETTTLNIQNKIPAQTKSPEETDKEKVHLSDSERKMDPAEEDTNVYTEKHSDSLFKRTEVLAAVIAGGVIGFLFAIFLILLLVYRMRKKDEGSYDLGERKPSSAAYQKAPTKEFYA

Tests used:
SDC2 in GC cells = SDC2 in GC cells (UniProt P34741); test: co-IP; GC cells (AGS named for USP14); RIPA-weak lysis buffer (1% NP-40, 0.25% sodium deoxycholate); anti-FLAG magnetic beads at 4 °C overnight; western blotting
[1] = biological target: FLAG-tagged-SDC2 (Syndecan-2) (UniProt P34741); test: co-IP; HEK293T cells, transiently transfected for 48 h; RIPA-weak lysis buffer (1% NP-40, 0.25% sodium deoxycholate); anti-FLAG magnetic beads at 4 °C overnight; western blotting

| Binder | binding (SDC2 in GC cells) | binding [1] |
| --- | --- | --- |
| PDK1 in GC cells (protein, UniProt O15530 1-556) MARTTSQLYDAVPIQSSVVLCSCPSPSMVRTQTESSTPPGIPGGSRQGPAMDGTAAEPRPGAGSLQHAQPPPQPRKKRPEDFKFGKILGEGSFSTVVLARELATSREYAIKILEKRHIIKENKVPYVTRERDVMSRLDHPFFVKLYFTFQDDEKLYFGLSYAKNGELLKYIRKIGSFDETCTRFYTAEIVSALEYLHGKGIIHRDLKPENILLNEDMHIQITDFGTAKVLSPESKQARANSFVGTAQYVSPELLTEKSACKSSDLWALGCIIYQLVAGLPPFRAGNEYLIFQKIIKLEYDFPEKFFPKARDLVEKLLVLDATKRLGCEEMEGYGPLKAHPFFESVTWENLHQQTPPKLTAYLPAMSEDDEDCYGNYDNLLSQFGCMQVSSSSSSHSLSASDTGLPQRSGSNIEQYIHDLDSNSFELDLQFSEDEKRLLLEKQAGGNPWHQFVENNLILKMGPVDKRKGLFARRRQLLLTEGPHLYYVDPVNKVLKGEIPWSQELRPEAKNFKTFFVHTPNRTYYLMDPSGNAHKWCRKIQEVWRQRYQSHPDAAVQ | binds | – |
| PH domain of PDK1 (HA-tagged-PDK1 recombinant construct) (domain or fragment, UniProt O15530 409-556) GSNIEQYIHDLDSNSFELDLQFSEDEKRLLLEKQAGGNPWHQFVENNLILKMGPVDKRKGLFARRRQLLLTEGPHLYYVDPVNKVLKGEIPWSQELRPEAKNFKTFFVHTPNRTYYLMDPSGNAHKWCRKIQEVWRQRYQSHPDAAVQ | – | binds |
